Experimental data reported in patent US5338725A, “Anti-aggregatory agents for platelets” (The Research Foundation of the State University of New York, priority 1992, dated 1994).
Not every detail of the peptide structures is certain; ends, links or a residue may be inferred. Positions of bridges follow the written chain, without caps; N, C: chain ends. Non-standard residues stand in square brackets, D forms with d. Residues, ends and D or L forms follow the SMILES beside them. Chains are numbered I, II in the order given. *: point of attachment. 2Abz = Nc1ccccc1C(=O)O; Bz = O=C(c1ccccc1)*

The chains behind the UniProt entries cited, without tags or fusion partners. Residues count along the entry.
UniProt P05106, 27-788: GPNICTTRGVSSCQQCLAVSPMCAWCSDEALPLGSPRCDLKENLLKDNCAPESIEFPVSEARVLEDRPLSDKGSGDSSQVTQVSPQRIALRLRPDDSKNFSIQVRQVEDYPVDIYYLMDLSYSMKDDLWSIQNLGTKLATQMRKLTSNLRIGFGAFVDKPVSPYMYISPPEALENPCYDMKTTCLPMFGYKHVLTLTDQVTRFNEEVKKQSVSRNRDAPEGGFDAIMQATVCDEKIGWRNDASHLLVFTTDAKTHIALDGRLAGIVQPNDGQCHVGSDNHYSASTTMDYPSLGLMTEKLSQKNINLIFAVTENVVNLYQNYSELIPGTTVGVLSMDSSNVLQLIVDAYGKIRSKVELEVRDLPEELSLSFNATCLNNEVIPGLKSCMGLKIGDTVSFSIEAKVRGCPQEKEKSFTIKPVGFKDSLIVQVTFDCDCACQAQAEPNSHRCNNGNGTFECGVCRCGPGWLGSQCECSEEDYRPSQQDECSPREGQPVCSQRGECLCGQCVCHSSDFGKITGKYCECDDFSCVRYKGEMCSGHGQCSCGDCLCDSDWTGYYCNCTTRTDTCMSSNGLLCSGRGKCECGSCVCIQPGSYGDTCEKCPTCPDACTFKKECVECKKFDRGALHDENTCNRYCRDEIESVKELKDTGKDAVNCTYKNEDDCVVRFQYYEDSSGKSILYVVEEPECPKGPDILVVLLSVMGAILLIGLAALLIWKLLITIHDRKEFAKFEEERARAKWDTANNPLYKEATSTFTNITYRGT
UniProt P08514, 32-1039: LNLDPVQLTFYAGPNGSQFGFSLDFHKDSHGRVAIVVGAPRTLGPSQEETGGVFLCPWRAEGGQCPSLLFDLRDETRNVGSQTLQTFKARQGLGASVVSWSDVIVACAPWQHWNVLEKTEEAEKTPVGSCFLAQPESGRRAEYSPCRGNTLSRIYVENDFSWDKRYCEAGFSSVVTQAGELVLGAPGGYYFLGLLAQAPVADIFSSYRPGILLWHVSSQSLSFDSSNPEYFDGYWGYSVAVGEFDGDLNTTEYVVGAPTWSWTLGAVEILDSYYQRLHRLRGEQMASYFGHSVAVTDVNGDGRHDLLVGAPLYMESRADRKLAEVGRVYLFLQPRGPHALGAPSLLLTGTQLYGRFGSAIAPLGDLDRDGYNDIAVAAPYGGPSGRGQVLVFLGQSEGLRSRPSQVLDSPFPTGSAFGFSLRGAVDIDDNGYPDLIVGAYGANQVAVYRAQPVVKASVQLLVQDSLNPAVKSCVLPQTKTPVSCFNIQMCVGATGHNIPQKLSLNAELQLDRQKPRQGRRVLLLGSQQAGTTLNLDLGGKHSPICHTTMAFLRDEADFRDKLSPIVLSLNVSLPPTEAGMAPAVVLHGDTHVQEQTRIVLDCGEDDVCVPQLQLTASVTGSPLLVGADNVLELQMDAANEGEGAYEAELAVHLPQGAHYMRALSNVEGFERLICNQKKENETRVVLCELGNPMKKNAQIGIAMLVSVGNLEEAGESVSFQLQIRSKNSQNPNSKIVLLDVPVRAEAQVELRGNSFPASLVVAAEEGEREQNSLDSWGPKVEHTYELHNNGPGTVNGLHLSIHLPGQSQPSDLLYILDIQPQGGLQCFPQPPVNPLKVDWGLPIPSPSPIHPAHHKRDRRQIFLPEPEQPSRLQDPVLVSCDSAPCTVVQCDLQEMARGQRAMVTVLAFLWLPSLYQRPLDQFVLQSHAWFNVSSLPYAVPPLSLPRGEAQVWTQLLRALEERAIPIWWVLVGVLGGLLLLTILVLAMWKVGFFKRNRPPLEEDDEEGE

biological target: human platelet-rich plasma (Homo sapiens, UniProt P05106+P08514); assay: In vitro inhibition of ADP-induced aggregation of human platelet-rich plasma (Coller assay); type: cell-based; conditions: adjusted for fibrinogen concentration (ca. 30 times lower than Coller assay value; 0.1 mg/mL fibrinogen)
Experimental: 1. In vitro Inhibition of Aggregation of Human Platelet-Rich Plasma
Whole blood (10 ml) was collected from human volunteers and anticoagulated by addition of […] of 40% sodium citrate. Platelet-rich plasma (PRP) was prepared by low speed centrifugation (700 G for 3.5 min at 22° C.). The PRP was removed and the remaining blood was centrifuged at 2000 G for 10 min at 22 ° C. to obtain platelet poor plasma (PPP). The PRP was diluted with PPP to give a final platelet count of 300 000μL with a Coulter Acounter Model ZM (Coulter, Hialeah, Fla.). This diluted PRP (400μL) was placed in a siliconized glass cuvette equipped with a magnetic stirrer and stirred at 1200 rpm at 37° C. Various concentrations of the peptides (36μL) in TRIS buffer (0.01 M TRIS, 0.15 M NaCl, and 0.05% sodium azide, pH 7.4) was added and incubated for 3 rain before platelet aggregation was induced by addition of 54μL of 100μM ADP in HEPES buffer (0.01 M HEPES and 0.15 M NaCl, pH 7.5). The platelet aggregation was determined by a change in light transmission through the PRP on a Lumi Aggregometer 400rS (ChronoLog, Hayertown, PA). The ability of the peptides to inhibit platelet aggregation was evaluated and the IC50 was determined as the concentration of peptide required to produce 50% inhibition of the response to ADP in the presence of the TRIS buffer.
The assay system developed by Coller, which is used throughout the experiment, is different from conventional assay systems in certain aspects. First, the platelets used by Plow et al., Blood, 70, 110 (1987); and Garsky et al., Proc. Natl. Acad. Sci. U.S.A., 86, 4022 (1989) are gel-filtered to remove plasma proteins. Since the gel-filtration treatment may decrease the reactivity of the platelets, our assay avoids this step. […]
The following peptides were synthesized, and their amino acid contents were analyzed as described in procedures 3-7, above. In addition, their ability to inhibit aggregation of human platelet rich plasma was assessed as described in procedures 1 and 2, above. […]

| Compound | IC50 (M)* Estimated IC50 adjusted to the values by the method of Plow et al. [M] |
| --- | --- |
| N=C(N)NCCC[C@H](NC(=O)c1ccccc1)C(=O)NCC(=O)N[C@@H](CC(=O)O)C(=O)N[C@@H](Cc1ccccc1)C(=O)N1CCC[C@H]1C(=O)NCCCC[C@H](NC(=O)[C@@H]1CCCN1C(=O)[C@H](Cc1ccccc1)NC(=O)[C@H](CC(=O)O)NC(=O)CNC(=O)[C@H](CCCNC(=N)N)NC(=O)c1ccccc1)C(N)=O [Example 9, (BzRGDFP)2 Lys--NH2] (I: Bz-RGDFPK-NH2 / II: Bz-RGDFP; amide I:6-II:C) | 1.2e-07 |
| N=C(N)NCCC[C@H](NC(=O)CN)C(=O)NCC(=O)N[C@@H](CC(=O)O)C(=O)N[C@@H](Cc1ccccc1)C(=O)NCC(=O)Nc1ccccc1C(=O)NCC(=O)N[C@@H](CCCNC(=N)N)C(=O)NCC(=O)N[C@@H](CC(=O)O)C(=O)N[C@@H](Cc1ccccc1)C(=O)O [Example 19, GRGDFG--(o)Abz--GRGDF--OH] (H-GRGDFG[2Abz]GRGDF-OH) | 2.1e-06 |
| N=C(N)NCCC[C@H](NC(=O)c1ccccc1)C(=O)NCC(=O)N[C@@H](CC(=O)O)C(=O)N[C@@H](Cc1ccccc1)C(=O)NC1CC(NC(=O)[C@H](Cc2ccccc2)NC(=O)[C@H](CC(=O)O)NC(=O)CNC(=O)[C@H](CCCNC(=N)N)NC(=O)c2ccccc2)CC(C(=O)N[C@@H](CCCNC(=N)N)C(=O)NCC(=O)N[C@@H](CC(=O)O)C(=O)N[C@@H](Cc2ccccc2)C(=O)O)C1 (stereo partly drawn) [Example 31, (BzRGDF)2 Dac--RGDF-OH] | 2.5e-07 |
